Results are given in words; binding and its absence hold for the method and conditions named. In cells and extracts the contact can be indirect. Some binding calls cover weakened binding; strength is not graded here.
Assays:
[1] = target: T1, mouse IDO1 mutant H350A lacking the catalytic activity, stably expressed in P1.HTR cells (P1.H350A) (mouse) (UniProt P28776); experiment: co-IP; IDO1 immunoprecipitated with a rabbit monoclonal anti-mouse IDO1 antibody (CV152) and Protein G-Sepharose from lysates of P1.HTR transfectants (50 mM Tris-HCl pH 7.5, 150 mM NaCl, 1% Nonidet P-40); cells pre-treated 4 h with epacadostat 1 uM or DMSO; partners detected by immunoblot
T1 sequence: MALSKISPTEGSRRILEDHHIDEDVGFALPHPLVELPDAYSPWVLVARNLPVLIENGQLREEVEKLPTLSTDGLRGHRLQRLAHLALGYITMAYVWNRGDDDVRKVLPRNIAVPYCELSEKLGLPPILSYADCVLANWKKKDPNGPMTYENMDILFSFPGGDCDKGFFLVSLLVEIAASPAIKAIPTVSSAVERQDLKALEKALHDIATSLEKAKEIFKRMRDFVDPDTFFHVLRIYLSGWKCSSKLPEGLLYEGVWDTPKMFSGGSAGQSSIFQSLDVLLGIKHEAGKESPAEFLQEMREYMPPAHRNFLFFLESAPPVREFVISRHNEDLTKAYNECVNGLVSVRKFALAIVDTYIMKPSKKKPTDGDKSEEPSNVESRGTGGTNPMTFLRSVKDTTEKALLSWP

Chains of the proteins cited; added tags and fusions are not shown.
UniProt P29351: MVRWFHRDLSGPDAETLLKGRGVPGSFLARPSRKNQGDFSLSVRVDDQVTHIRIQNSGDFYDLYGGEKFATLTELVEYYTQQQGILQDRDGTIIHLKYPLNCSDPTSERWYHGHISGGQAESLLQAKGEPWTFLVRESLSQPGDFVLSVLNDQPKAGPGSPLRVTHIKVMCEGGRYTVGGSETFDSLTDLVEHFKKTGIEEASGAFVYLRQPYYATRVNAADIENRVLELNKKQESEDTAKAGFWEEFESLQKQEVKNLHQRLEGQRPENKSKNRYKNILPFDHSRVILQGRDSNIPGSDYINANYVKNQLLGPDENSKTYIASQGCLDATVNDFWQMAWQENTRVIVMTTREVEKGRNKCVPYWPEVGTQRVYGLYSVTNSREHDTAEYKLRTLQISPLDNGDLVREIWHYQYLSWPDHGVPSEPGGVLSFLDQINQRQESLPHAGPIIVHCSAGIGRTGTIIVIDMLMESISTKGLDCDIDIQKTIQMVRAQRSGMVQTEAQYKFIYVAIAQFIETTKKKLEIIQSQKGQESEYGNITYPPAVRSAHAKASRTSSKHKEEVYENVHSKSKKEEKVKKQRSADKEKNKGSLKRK

[2] = target: mouse wild type IDO1 stably expressed in P1.HTR mastocytoma cells (P1.IDO1) (mouse) (UniProt P28776); experiment: as above
[3] = target: IDO1-RFP (mouse Ido1 cloned in pTagRFP-N vector) (mouse) (UniProt P28776); experiment: FRET or BRET; FRET microscopy (GFP/RFP pair) in fixed HeLa cells co-transfected with the two fusion proteins; 16 h after transfection cells treated 4 h with epacadostat 1 uM or DMSO

Substance	binding [1]	binding [2]	binding [3]
SHP-1 (endogenous in P1.HTR transfectants) (from UniProt P29351 1-595) (enzyme)	binds	binds	–
SHP-1-GFP (Ptpn6 Mouse Tagged ORF Clone, Origene) (from UniProt P29351 1-595) (enzyme)	–	–	binds

Source: publication PMC10145169
